Structures can show the parent of a compound that is named as a salt. Whole data set: some 1,100 compounds, median “Renilla luciferase signal (cell health) relative to plate median” near 0.97, cut for the highest 2% near 1.6. The list shows a part of the results, in another mix than the full data.
System: HEK293T (UBE3A T485A transfected, BAR Wnt reporter)
Test: Renilla luciferase signal (cell health) relative to plate median (fold (linear ratio)); higher = higher Renilla signal
Details: 24 h
Summary of the method: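 Using Fugene 6, HEK293T cells in white 384-well plates (4500 cells/well; DMEM, 10% FBS, 37°C, 5% CO2) were transfected with a BAR firefly luciferase Wnt reporter, TK-Renilla and an expression plasmid. After four hours, robots dosed the chemicals at 0.01–100 uM, and a Dual-Glo luciferase readout followed 24 h later. Per-plate median-centred firefly/Renilla ratios gave Wnt activity, while per-plate median-centred raw Renilla signals gave cell health. Four biological replicates were averaged.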

SMILES | Renilla luciferase signal (concentration: 0.1 uM) | Renilla luciferase signal (concentration: 1 uM) | Renilla luciferase signal (concentration: 10 uM) | Renilla luciferase signal (concentration: 100 uM) | Renilla luciferase signal (concentration: 0.01 uM)
COc1ccc(O)c(C(C)(C)C)c1 [2-tert-Butyl-4-methoxyphenol] | 0.947 | 0.971 | 1.22 | 1.03 | –
O=C(CCl)c1ccccc1 [2-Chloroacetophenone] | 1.01 | 1.01 | 0.922 | 0.594 | –
C[n+]1ccc(-c2cc[n+](C)cc2)cc1 [Paraquat] | – | – | – | 2.18 | –
CCOP(=S)(OCC)SCSP(=S)(OCC)OCC [Ethion] | 0.929 | 0.935 | 0.973 | 1.13 | –
O=C(O)C(F)(F)C(F)(F)C(F)(F)C(F)(F)C(F)(F)C(F)(F)C(F)(F)C(F)(F)C(F)(F)C(F)(F)F [Perfluoroundecanoic acid] | 0.861 | 0.837 | 0.868 | 0.248 | –
CCC(=NOC/C=C/Cl)C1=C(O)CC(C2CCOCC2)CC1=O (stereo not drawn) [Tepraloxydim] | 1.05 | 0.941 | 1 | 0.793 | 1.23
CC1(C)CCC(=Cc2ccc(Cl)cc2)C1(O)Cn1cncn1 (stereo not drawn) [Triticonazole] | 0.934 | 0.904 | 1.1 | 1.01 | 0.745
COP(N)(=O)SC (stereo not drawn) [Methamidophos] | 0.989 | 1.14 | 1.04 | 2.27 | 1.08
Nc1nc(N)nc(NC2CC2)n1 [Cyromazine] | 0.889 | 0.95 | 1.05 | 1.86 | 1.1
Nc1ccc([N+](=O)[O-])cc1 [4-Nitroaniline] | 1 | 1.14 | 1.21 | 1.26 | –
CCCCCCCCOC(=O)c1ccccc1C(=O)OCCCCCCCC [Dioctyl phthalate] | 0.974 | 0.864 | 0.951 | 1.24 | –
c1ccc(NNc2ccccc2)cc1 [1,2-Diphenylhydrazine] | 0.914 | 0.888 | 0.819 | 0.993 | –
CCCCCCCCCC[N+](C)(C)CCCCCCCCCC.[Cl-] [Didecyldimethylammonium chloride] | 0.877 | 0.895 | 0.56 | 0.397 | –
COc1ccc(C(c2ccc(OC)cc2)C(Cl)(Cl)Cl)cc1 [Methoxychlor] | 1.02 | 1.12 | 1.05 | 0.345 | 1.35
CCNC(=O)NC(=O)/C(C#N)=N/OC [Cymoxanil] | 1.16 | 1.08 | 1.15 | 2.39 | 1.26
O=c1ccc(=O)[nH][nH]1 [Maleic hydrazide] | 1.01 | 0.977 | 1 | 1.54 | 0.956
c1ccc2c(c1)oc1ccccc12 [Dibenzofuran] | 1.04 | 0.995 | 1.18 | 1.44 | –

A section taken from the entries so far:
SMILES | Renilla luciferase signal (concentration: 0.1 uM) | Renilla luciferase signal (concentration: 1 uM) | Renilla luciferase signal (concentration: 10 uM) | Renilla luciferase signal (concentration: 100 uM) | Renilla luciferase signal (concentration: 0.01 uM)
COc1ccc(O)c(C(C)(C)C)c1 [2-tert-Butyl-4-methoxyphenol] | 0.947 | 0.971 | 1.22 | 1.03 | –
O=C(CCl)c1ccccc1 [2-Chloroacetophenone] | 1.01 | 1.01 | 0.922 | 0.594 | –

(further entries)

SMILES | Renilla luciferase signal (concentration: 0.1 uM) | Renilla luciferase signal (concentration: 1 uM) | Renilla luciferase signal (concentration: 10 uM) | Renilla luciferase signal (concentration: 100 uM) | Renilla luciferase signal (concentration: 0.01 uM)
CNC(=O)ON=C(SC)C(=O)N(C)C [Oxamyl] | 0.98 | 0.96 | 0.914 | 0.453 | 0.606
COP(=S)(OC)SCn1nnc2ccccc2c1=O [Azinphos-methyl] | 0.859 | 0.934 | 0.897 | 0.768 | 0.899
CSc1nnc(C(C)(C)C)c(=O)n1N [Metribuzin] | 0.918 | 0.968 | 0.925 | 1.02 | 0.764
CN(C)CCO [Dimethylaminoethanol] | 0.893 | 1 | 0.901 | 1.28 | –
COCCOCCO [Diethylene glycol monomethyl ether] | 1.01 | 0.991 | 1.01 | 1.32 | –
CCC(C)c1cc([N+](=O)[O-])cc([N+](=O)[O-])c1O (stereo not drawn) [Dinoseb] | 1.4 | 1.25 | 1.15 | 0.0233 | –
CC1(C)C(C=C(Cl)Cl)C1C(=O)OCc1cccc(Oc2ccccc2)c1 (stereo not drawn) [Permethrin] | 1.03 | 1.05 | 1.11 | 0.617 | 1.5
C=CC1(C)OC(=O)N(c2cc(Cl)cc(Cl)c2)C1=O (stereo not drawn) [Vinclozolin] | – | – | – | 2.37 | –
COP(=S)(OC)Oc1ccc([N+](=O)[O-])c(C)c1 [Fenitrothion] | 0.98 | 1.05 | 1.05 | 1.42 | 1.12
C#CC(C)(C)NC(=O)c1cc(Cl)cc(Cl)c1 [Propyzamide] | – | – | – | 1.72 | –
N#C/N=C1\SCCN1Cc1ccc(Cl)nc1 [Thiacloprid] | 0.888 | 1.01 | 0.922 | 1.33 | 0.755
ClC1=C(Cl)C2(Cl)C3C(Cl)C=CC3C1(Cl)C2(Cl)Cl (stereo not drawn) [Heptachlor] | 0.778 | 0.976 | 0.949 | 1.04 | –
Cc1cccc([N+](=O)[O-])c1 [3-Nitrotoluene] | 1.17 | 0.989 | 1.06 | 1.12 | –
COc1ccc(C(=CC(=O)N2CCOCC2)c2ccc(Cl)cc2)cc1OC [Dimethomorph] | 1.09 | 0.911 | 0.947 | 0.703 | 1.1
CCOCN(C(=O)CCl)c1c(C)cccc1CC [Acetochlor] | 1.16 | 1.01 | 0.966 | 0.122 | 1.31
CCOS(=O)(=O)OCC [Diethyl sulfate] | 0.865 | 1.01 | 1 | 1.21 | –
